Experimental data as given in patent US20060269536A1.
No constants are given. Whether binding was seen depends on the method and setting. Some results given as binding are weak or reduced against the parent protein; the word gives no strength.

Chains of the proteins cited; added tags and fusions are not shown. Residues count along the entry.
UniProt P20151, residues 25-261: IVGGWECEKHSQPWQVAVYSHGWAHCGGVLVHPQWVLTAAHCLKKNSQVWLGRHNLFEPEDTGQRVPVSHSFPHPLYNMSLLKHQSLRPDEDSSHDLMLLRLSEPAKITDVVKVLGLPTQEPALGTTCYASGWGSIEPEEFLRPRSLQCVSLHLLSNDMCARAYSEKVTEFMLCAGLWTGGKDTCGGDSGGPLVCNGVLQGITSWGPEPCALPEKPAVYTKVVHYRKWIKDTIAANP

Legend:
[1] = target: human glandular kallikrein hK2 (human) (UniProt P20151); assay: covalent complex formation with hK2
[2] = target: human glandular kallikrein hK2 (human) (UniProt P20151); assay: inhibition of hK2 over time (data not shown)
[3] = target: human glandular kallikrein hK2 (human) (UniProt P20151); assay: Western blot, anti-hK2 antibody 9D5, 1 µg inhibitor with 100 ng hK2, 1 hour at 37° C. (FIG. 6A)
[4] = target: human glandular kallikrein hK2 (human) (UniProt P20151); assay: Western blot, anti-hK2 antibody, 3 h at 37° C., I:E 100:1 (FIG. 3A)

Measured: binding

B1: rACT6.1 (designed binder)
chain: MRGSHHHHHHSRHPNSPLDEENLTQENQDRGTHVDLGLASANVDFAFSLYKQLVLKAPDKNVIFSPLSISTALAFLSLGAHNTTLTEILKGLKFNLTETSEAEIHQSFQHLLRTLNQSSDELQLSMGNAMFVKEQLSLLDRFTEDAKRLYGSEAFATDFQDSAAAKKLINDYVKNGTRGKITDLIKDLDSQTMMVLVNYIFFKAKWEMPFDPQDTHQSRFYLSKKKWVMVPMMSLHHLTIPYFRDEELSCTVVELKYTGNASALFILPDQDKMEEVEAMLLPETLKRWRDSLEFREIGELYLPKFSISRDYNLNDILLQLGIEEAFTSKADLSGITGARNLAVSQVVHKAVLDVFEEGTEASAATAVKIMTRSNAVETRTIVRFNRPFLMIIVPTDTQNIFFMSKVTNPKQA
binds: all assays above
